The list shows a part of the results.

Amino acid sequences for entries named in this document (tags omitted). A change or cut given only in a name is not applied to a line headed by its entry.
UniProt P78330: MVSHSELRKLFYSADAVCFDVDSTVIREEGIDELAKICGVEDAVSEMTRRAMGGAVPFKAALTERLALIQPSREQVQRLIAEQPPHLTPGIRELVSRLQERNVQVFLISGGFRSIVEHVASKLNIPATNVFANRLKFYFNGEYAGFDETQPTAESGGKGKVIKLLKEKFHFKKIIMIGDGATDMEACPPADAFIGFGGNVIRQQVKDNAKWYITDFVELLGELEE
UniProt Q96PZ0: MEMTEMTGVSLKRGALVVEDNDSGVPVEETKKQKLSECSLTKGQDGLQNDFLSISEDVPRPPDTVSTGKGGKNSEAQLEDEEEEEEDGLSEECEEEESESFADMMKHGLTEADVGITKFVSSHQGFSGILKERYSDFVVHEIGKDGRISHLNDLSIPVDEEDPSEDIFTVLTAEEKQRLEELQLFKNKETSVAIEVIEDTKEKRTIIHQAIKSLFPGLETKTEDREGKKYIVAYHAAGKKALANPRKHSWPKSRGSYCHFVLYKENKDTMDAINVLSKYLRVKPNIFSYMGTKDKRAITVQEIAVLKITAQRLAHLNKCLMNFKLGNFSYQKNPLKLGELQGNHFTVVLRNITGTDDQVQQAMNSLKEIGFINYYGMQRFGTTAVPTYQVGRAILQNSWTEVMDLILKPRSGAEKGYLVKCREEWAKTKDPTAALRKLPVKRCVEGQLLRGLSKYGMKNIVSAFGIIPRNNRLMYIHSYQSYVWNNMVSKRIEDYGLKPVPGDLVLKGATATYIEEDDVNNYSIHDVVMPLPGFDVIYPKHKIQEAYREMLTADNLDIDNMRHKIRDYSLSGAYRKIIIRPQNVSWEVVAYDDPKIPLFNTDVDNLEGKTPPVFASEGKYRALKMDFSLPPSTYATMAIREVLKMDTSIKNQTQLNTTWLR
UniProt Q15269: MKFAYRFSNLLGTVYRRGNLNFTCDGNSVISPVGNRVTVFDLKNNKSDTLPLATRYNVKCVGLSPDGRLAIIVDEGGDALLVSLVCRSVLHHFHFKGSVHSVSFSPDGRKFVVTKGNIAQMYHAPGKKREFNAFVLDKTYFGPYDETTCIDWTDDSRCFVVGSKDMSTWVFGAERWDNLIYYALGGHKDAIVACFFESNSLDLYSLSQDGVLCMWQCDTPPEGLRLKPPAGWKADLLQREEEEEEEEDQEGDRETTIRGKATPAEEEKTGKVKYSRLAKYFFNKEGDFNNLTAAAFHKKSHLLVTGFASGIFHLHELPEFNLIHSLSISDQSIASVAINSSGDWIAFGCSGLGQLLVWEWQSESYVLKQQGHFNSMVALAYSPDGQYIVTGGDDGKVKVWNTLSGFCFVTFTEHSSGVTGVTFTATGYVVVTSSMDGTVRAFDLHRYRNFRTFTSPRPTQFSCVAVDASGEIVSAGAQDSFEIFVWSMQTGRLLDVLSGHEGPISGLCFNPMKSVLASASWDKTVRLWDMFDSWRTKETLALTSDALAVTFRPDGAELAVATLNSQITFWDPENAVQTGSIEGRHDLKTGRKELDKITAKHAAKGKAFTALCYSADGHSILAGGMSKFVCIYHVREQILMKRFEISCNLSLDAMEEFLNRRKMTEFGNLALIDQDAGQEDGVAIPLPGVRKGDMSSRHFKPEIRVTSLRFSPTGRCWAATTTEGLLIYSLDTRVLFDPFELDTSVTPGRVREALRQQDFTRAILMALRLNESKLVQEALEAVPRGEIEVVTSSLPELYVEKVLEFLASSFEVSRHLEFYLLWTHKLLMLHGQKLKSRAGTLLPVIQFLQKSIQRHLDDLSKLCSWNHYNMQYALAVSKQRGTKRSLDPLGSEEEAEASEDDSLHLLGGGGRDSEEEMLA
UniProt Q8TAA3: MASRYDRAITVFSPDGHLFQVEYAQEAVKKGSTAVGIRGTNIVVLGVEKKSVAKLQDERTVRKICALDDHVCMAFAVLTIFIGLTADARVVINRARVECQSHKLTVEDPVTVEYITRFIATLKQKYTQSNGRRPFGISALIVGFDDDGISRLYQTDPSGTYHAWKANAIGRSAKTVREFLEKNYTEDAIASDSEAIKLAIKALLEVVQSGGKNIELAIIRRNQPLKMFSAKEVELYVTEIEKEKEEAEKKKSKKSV
UniProt P09417: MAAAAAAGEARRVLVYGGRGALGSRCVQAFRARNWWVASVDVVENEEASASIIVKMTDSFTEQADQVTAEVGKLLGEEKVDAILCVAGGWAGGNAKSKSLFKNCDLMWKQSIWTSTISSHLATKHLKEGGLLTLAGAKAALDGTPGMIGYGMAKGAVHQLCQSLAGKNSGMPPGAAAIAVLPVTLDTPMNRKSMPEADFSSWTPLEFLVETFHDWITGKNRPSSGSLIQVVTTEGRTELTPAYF
UniProt Q9UL46, whole entry, looked up: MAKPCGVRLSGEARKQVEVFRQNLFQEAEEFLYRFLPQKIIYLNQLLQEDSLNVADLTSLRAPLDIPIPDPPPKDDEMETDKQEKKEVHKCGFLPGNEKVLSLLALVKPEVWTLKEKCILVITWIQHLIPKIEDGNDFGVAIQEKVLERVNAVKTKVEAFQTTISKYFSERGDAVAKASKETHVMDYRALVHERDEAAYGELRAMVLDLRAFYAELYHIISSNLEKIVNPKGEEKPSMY
UniProt Q9NRG1: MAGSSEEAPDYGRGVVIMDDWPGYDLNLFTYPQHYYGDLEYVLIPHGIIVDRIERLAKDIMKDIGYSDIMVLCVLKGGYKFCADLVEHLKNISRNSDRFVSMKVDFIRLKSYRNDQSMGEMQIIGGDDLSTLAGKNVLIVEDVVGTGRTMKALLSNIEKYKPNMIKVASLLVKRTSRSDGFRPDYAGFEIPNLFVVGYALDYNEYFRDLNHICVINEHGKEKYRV
UniProt P55036: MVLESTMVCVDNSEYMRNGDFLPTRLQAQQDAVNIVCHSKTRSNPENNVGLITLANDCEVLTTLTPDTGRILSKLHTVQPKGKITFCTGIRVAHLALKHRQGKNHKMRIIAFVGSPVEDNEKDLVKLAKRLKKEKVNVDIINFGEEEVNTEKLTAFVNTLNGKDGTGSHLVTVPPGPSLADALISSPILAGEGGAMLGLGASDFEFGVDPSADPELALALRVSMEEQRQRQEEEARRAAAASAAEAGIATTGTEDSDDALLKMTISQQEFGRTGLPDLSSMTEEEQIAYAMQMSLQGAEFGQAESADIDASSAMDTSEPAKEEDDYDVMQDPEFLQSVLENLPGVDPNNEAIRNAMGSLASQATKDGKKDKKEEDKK
UniProt Q9H0K6: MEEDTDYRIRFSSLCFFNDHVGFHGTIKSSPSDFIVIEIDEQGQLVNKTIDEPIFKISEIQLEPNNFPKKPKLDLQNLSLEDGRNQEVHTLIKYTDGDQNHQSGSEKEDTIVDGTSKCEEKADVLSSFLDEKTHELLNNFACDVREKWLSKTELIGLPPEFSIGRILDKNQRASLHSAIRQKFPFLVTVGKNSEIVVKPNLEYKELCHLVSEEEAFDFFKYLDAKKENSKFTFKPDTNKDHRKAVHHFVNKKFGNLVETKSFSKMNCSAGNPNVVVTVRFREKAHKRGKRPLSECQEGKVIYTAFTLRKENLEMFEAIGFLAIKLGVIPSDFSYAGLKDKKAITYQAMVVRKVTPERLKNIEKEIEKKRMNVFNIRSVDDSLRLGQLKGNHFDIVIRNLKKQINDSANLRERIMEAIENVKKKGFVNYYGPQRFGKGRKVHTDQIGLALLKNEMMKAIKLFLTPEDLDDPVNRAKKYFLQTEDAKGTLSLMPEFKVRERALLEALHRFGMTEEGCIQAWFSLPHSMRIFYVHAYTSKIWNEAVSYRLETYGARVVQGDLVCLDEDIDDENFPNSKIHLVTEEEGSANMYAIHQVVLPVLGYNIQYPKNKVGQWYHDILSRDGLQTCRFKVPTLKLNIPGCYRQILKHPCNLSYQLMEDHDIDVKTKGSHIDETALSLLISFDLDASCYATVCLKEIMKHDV
UniProt O00487, whole entry, looked up: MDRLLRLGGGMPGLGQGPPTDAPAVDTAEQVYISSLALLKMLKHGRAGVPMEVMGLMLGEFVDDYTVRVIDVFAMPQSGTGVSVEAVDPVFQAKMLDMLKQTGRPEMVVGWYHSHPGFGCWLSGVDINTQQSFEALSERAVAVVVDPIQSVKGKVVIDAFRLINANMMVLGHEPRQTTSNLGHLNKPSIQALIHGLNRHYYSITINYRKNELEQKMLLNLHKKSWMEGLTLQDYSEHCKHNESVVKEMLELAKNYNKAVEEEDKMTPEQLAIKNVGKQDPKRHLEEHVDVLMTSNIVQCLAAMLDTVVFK
UniProt Q8TB72: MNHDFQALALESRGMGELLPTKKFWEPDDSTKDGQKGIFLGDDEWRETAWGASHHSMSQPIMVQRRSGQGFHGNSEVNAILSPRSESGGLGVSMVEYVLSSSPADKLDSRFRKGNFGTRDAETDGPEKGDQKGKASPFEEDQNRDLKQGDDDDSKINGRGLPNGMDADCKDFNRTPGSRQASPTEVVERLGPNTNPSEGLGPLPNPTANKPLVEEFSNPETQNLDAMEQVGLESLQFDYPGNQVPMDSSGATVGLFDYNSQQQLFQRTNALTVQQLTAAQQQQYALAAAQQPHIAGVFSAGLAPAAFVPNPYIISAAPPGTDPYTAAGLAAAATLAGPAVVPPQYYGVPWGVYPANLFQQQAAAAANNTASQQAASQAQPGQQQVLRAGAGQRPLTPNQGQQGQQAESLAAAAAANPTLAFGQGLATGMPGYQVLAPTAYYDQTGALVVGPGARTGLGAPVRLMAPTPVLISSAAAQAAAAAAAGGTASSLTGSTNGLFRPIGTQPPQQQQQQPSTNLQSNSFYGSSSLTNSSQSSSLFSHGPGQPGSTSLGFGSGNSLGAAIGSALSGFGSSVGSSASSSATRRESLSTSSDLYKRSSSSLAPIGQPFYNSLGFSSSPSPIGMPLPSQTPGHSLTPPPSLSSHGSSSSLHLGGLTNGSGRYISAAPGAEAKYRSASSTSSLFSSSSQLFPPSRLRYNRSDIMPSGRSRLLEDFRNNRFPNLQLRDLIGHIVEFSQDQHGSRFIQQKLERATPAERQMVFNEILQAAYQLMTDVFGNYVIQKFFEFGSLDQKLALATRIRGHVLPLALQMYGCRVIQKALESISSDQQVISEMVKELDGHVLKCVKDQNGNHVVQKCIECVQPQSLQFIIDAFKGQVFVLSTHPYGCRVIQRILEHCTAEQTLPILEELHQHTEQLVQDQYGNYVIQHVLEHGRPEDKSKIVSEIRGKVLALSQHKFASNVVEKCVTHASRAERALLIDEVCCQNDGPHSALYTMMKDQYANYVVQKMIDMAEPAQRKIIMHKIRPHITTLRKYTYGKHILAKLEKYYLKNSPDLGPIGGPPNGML
UniProt P08575: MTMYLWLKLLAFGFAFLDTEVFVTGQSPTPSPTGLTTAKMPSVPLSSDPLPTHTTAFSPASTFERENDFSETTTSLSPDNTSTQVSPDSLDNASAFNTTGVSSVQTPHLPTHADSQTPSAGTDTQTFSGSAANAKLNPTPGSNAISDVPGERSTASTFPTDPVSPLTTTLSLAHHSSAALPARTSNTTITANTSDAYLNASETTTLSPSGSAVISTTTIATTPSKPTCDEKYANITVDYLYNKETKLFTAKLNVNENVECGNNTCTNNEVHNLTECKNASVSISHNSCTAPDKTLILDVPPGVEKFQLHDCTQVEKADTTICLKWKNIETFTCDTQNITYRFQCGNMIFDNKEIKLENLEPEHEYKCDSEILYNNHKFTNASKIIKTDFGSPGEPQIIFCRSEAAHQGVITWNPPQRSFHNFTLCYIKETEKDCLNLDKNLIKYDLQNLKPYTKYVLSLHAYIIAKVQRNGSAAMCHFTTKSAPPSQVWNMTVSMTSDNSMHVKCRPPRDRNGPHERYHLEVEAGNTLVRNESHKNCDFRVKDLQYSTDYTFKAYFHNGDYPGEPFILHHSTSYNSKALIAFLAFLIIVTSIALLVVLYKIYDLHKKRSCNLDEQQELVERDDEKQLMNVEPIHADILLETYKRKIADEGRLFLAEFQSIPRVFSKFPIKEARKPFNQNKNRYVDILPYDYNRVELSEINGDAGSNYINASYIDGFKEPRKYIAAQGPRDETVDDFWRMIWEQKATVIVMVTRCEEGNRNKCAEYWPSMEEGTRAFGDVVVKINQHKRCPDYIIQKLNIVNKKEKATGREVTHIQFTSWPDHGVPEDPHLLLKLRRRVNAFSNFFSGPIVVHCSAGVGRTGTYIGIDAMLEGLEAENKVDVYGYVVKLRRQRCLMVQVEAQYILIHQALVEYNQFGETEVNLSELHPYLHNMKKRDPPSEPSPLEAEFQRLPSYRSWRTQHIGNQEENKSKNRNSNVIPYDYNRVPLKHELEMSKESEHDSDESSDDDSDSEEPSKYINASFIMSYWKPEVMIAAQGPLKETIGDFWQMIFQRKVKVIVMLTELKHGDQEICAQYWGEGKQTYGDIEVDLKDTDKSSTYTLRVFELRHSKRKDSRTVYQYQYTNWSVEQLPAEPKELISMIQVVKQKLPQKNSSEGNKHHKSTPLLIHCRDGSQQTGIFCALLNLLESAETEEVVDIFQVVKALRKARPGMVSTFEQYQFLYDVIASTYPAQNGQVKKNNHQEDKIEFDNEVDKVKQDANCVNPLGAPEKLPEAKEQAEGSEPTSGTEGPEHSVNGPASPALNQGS

Compound in this assay: C1=CC2=C(C=CC(=C2)/C=C\3/C(=O)NC(=NCC4=CC=CS4)S3)N=C1
Kind of assay: log2 fold change, soluble protein after heating vs DMSO (PISA); higher = thermal stabilisation; K562 cells, 10 uM, 30 min; active = over 0.2 and 3.5 SD of the protein, either way, in both replicates (recomputed). The gist of the method: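 K562 cells at 2×10^6 cells/mL were given 10 μM compound for 30 min. Aliquots then went through 3 min of heating across 48°C-58°C, were pooled, and were extracted in PBS with 0.5% NP-40 at 4°C, and the supernatant after 21,000xg for 90 min was quantified by TMTpro 16plex LC-MS/MS with channel sums equalised. Thermal stability relative to control samples, from duplicates, is given as log2 fold change.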
As to PXMP2 (UniProt Q9NR77), the log2 fold change is inactive: 0.032.
To PSPH (UniProt P78330) belongs inactive: 0.067; to QTRT1 (UniProt Q9BXR0), inactive: 0.036; to PUS7 isoform 2 (UniProt Q96PZ0), inactive: -0.011.
To PZP (UniProt P20742) belongs inactive: 0.169.
For QPCTL (UniProt Q9NXS2) the value was inactive: 0.06.
Take PTMS (UniProt P20962): the log2 fold change was inactive: -0.067.
For the target PWP2 (UniProt Q15269), the log2 fold change is inactive: -0.046.
With PSMA8 (UniProt Q8TAA3), the log2 fold change is inactive: 0.05.
As to QDPR (UniProt P09417), the log2 fold change was inactive: -0.033.
To PSME1 (UniProt Q06323) belongs inactive: -0.013; to PSME2 (UniProt Q9UL46), inactive: -0.013.
PRTFDC1 (UniProt Q9NRG1): the log2 fold change is inactive: -0.002.
In the case of PSMB1 (UniProt P20618), the log2 fold change is inactive: -0.075.
PTPRA (UniProt P18433): the log2 fold change was inactive: -0.002.
For PSMD4 (UniProt P55036) the value was inactive: -0.036.
In the case of PUS7L (UniProt Q9H0K6), the log2 fold change is inactive: 0.037.
For PSMD14 (UniProt O00487) the value was inactive: -0.003; for PUM2 (UniProt Q8TB72), inactive: 0.027.
In the case of PTPRC (UniProt P08575), the log2 fold change was inactive: 0.025.
For QTRT2 isoform 4 (UniProt Q9H974) the value was inactive: 0.024.
For PUS10 (UniProt Q3MIT2) the value was inactive: -0.082.
To PSMG4 isoform 2 (UniProt Q5JS54) belongs inactive: -0.039.

These data come from the supplement of paper PMC10849652.
